# Test results taken from patent publication EP4635974A1, “COSMETIC COMPOSITION FOR SKIN IMPROVEMENT” (LG Household & Health Care Ltd., priority 2022, dated 2024).
# Part of at least one peptide drawing is inferred or uncertain, most often the ends. Where a SMILES comes first, the peptide text is derived from it. Where no end group is shown, it is not given here. The star is where a group is joined. Palmitoyl = CCCCCCCCCCCCCCCC(=O)*
# Test system: Collagenase derived from the mouse pancreas
# Assay: Inhibition of collagenase activity (synthetic substrate, absorbance at 345 nm)
# Type: biochemical
# Conditions: 100 µg/mL
# Experimental: Collagenase derived from the mouse pancreas was used, and the synthetic substrate N-(3-[2-furyl]acryloyl)-Leu-Gly-Pro-Ala was used as the substrate of collagenase. A buffer solution in which 50 mM tricine, 10 mM CaCl2·H2O and 400 mM NaCl were dissolved (pH 7.5) was used. The synthetic substrate was dissolved in the buffer solution to a concentration of 10 mM and finally diluted to 75 µM. The collagenase was dissolved to a concentration of 1 unit/mL using cold triply distilled water at 4 °C and then finally diluted to 0.05 unit/mL using a buffer solution. The candidates of collagenase inhibition were tested at final concentrations of 25 and 50 ppm. As a positive control group, epigallocatechin gallate (EGCG) known to have the effect of inhibiting collagenase was used at a final concentration of 50 ppm. Reaction was conducted in a 96-well plate at room temperature for 10 minutes. The inhibition of the enzyme activity was determined by measuring absorbance at 345 nm using a spectrophotometer with 1-minute intervals, and calculating the maximum slope of the absorbance versus time.
# In order to investigate the effect of peptide sequence variation, the activity of […] was tested as in Test Example 1 after sequence variation. Elastase derived from human leukocytes was used, and the synthetic substrate MeOSuc-Ala-Ala-Pro-Val-pNA was used as the substrate of elastase. A 100 mM Tris (pH 7.5) solution was used as a buffer solution. The elastase was diluted finally to 0.2 mU using the buffer solution. In addition, the synthetic substrate of elastase was prepared into a 100 mM solution using DMSO, and then diluted to a final concentration of 0.5 mM using a buffer solution. As a positive control group, quercetin known to inhibit elastase was used at a concentration of 10 ppm. The candidates of elastase inhibition were tested at final concentrations of 10 and 20 ppm. Reaction was conducted in a 96-well plate at room temperature for 20 minutes. The inhibition of the enzyme activity was determined by measuring absorbance at 405 nm using a spectrophotometer with 1-minute intervals, and calculating the slope of the absorbance versus time.
# The peptide sequences of SEQ ID NOS 14 to 16 were treated at 100 µg/mL, and the peptide sequence RKSLFVD was used as a control peptide sequence. The inhibition of collagenase activity (%) and the inhibition of elastase activity (%) were calculated from the relative enzyme activity versus the control group, and the result is given in Table 4.
# In order to investigate the effect of variation of the N-terminal or C-terminal of the peptide sequence, the activity of collagenase and elastase was tested after sequence variation as in Test Example 1.
# [1] = Table 5, N-terminal or C-terminal variation
# [2] = Table 4, relative enzyme activity versus the control group
Inhibition of collagenase activity (%) (Table 3),Inhibition of collagenase activity (%) [1],Inhibition of collagenase activity (%) [2],Molecule
10.97%,,,"RSSCF [SEQ ID NO 13, RSSCF]"
18.11%,,,"GRSSCFVD [SEQ ID NO 7, GRSSCFVD]"
18.79%,,,"SSCFVD [SEQ ID NO 9, SSCFVD]"
,25.1%,,CC(=O)N[C@@H](CCCCN)C(=O)NCC(=O)N[C@@H](CCCNC(=N)N)C(=O)N[C@@H](CO)C(=O)N[C@@H](CO)C(=O)N[C@@H](CS)C(=O)N[C@@H](Cc1ccccc1)C(=O)N[C@H](C(=O)N[C@@H](CC(=O)O)C(=O)N[C@@H](CS)C(=O)O)C(C)C (Ac-KGRSSCFVDC-OH)
,29.8%,,CCCCCCCCCCCCCCCC(=O)N[C@@H](CCCCN)C(=O)NCC(=O)N[C@@H](CCCNC(=N)N)C(=O)N[C@@H](CO)C(=O)N[C@@H](CO)C(=O)N[C@@H](CS)C(=O)N[C@@H](Cc1ccccc1)C(=O)N[C@H](C(=O)N[C@@H](CC(=O)O)C(=O)N[C@@H](CS)C(=O)O)C(C)C (Palmitoyl-KGRSSCFVDC-OH)
22.98%,,26.3%,"KGRSSCF [SEQ ID NO 3, KGRSSCF]"
25.69%,,19.7%,"KGRSSCFVD [SEQ ID NO 2, KGRSSCFVD]"
9.50%,,,"RSSCFVD [SEQ ID NO 8, RSSCFVD]"
,17.7%,,CC(C)[C@H](NC(=O)[C@H](Cc1ccccc1)NC(=O)[C@H](CS)NC(=O)[C@H](CO)NC(=O)[C@H](CO)NC(=O)[C@H](CCCNC(=N)N)NC(=O)CNC(=O)[C@@H](N)CCCCN)C(=O)N[C@@H](CC(=O)O)C(=O)N[C@@H](CS)C(N)=O [C-amine-substituted peptide of SEQ ID] (H-KGRSSCFVDC-NH2)
,0.1%,0.7%,"RKSLFVD [Control peptide sequence, RKSLFVD, reference compound]"
22.62%,,,"KGRSSCFV [SEQ ID NO 4, KGRSSCFV]"
